{"source": "PubChem BioAssay AID330", "about": "(DTP/NCI, 2004)", "tested_on": "P388 leukemia ip, CD2F1 mice, survival T/C", "assay": "NCI In Vivo Anticancer Drug Screen. Data for tumor model P388 Leukemia (intraperitoneal) in CD2F1 (CDF1) mice", "details": "T/C endpoint: median survival time, higher T/C = longer survival", "key": {"[1]": {"details": "dose: 200.0 mg/kg/injection, schedule: Q01DX001 (ip), vehicle: Klucel (hydroxypropylcellulose) (HPC)"}, "[2]": {"details": "dose: 200.0 mg/kg/injection, schedule: Q01DX005 (ip), vehicle: saline + Tween-80 + alcohol"}, "[3]": {"details": "dose: 100.0 mg/kg/injection, schedule: Q01DX001 (ip), vehicle: Klucel (hydroxypropylcellulose) (HPC)"}, "[4]": {"details": "dose: 400.0 mg/kg/injection, schedule: Q01DX001 (ip), vehicle: Klucel (hydroxypropylcellulose) (HPC)"}}, "note": "The list is a part of this screen's results and no random one: it is rich in T/C values a quarter to a half above the control, in often repeated tests (any T/C) and in doses without a T/C. Other doses and runs of a compound stand elsewhere. T/C is the treated group as % of the vehicle group. Some doses have a count of surviving animals in place of a T/C: the source files T/C as zero there, which appears to mark a toxic dose or a test without result, not a measured value. Some survivor counts are full or nearly so, which does not show that the dose was tolerated: survival well below the control is almost never listed, so the zero probably covers shortened survival too. Counts of survivors are from the toxicity check (mostly the fifth day) where no day follows; animals may have died later. Schedules are NCI's codes, read here as Q, the interval in days (D) or hours (H), X, the number of doses. Some entries hold several experiments; their values stand side by side, smallest first. Where survival is the endpoint, this PubChem deposit counts one and a half times the control or more as active, and values a quarter to a half above the control carry no call in these data; other NCI protocols may use other cut-offs."}
{"smiles": "Nn1c(N/N=C\\c2ccccc2)nnc1N/N=C/c1ccccc1", "values": [{"measurement": "survivor count", "setting": "[1]", "value": "2 of 6"}]}
{"smiles": "C=C1C(=O)OC(CCCCCCCCCCCCCC(C)=O)[C@H]1C(=O)O", "note": "(stereo not given in full)", "values": [{"measurement": "survivor count", "setting": "dose: 80.0 mg/kg/injection, schedule: Q01DX005 (ip), vehicle: Klucel (hydroxypropylcellulose) (HPC)", "value": "0 of 6"}]}
{"smiles": "CC(C)(C)SSCCN", "values": [{"measurement": "survivor count", "setting": "dose: 200.0 mg/kg/injection, schedule: Q01DX005 (ip), vehicle: saline with Tween-80", "value": "0 of 5"}]}
{"smiles": "CCNC(=O)c1nnn2c1nc(N)c1cc(Cl)ccc12", "values": [{"measurement": "survivor count", "setting": "dose: 50.0 mg/kg/injection, schedule: Q01DX005 (ip), vehicle: Klucel (hydroxypropylcellulose) (HPC)", "value": "1 of 6"}]}
{"smiles": "CNC(=S)C#N", "values": [{"measurement": "T/C", "setting": "dose: 100.0 mg/kg/injection, schedule: Q01DX005 (ip), vehicle: saline + Tween-80 + alcohol", "value": "130 % of control"}, {"measurement": "T/C", "setting": "[2]", "value": "125 % of control"}, {"measurement": "survivor count", "setting": "[2]", "value": "0 of 6"}]}
{"smiles": "CC(C)c1ccccc1N1C(=O)CC(Sc2ccccc2N)C1=O", "note": "(stereo not given)", "values": [{"measurement": "survivor count", "setting": "dose: 100.0 mg/kg/injection, schedule: Q01DX005 (ip), vehicle: Klucel (hydroxypropylcellulose) (HPC)", "value": "5 of 5"}]}
{"smiles": "CC(C)(C)c1ccc(S(=O)[O][Sn]([CH3])([CH3])[O]S(=O)c2ccc(C(C)(C)C)cc2)cc1", "note": "(stereo not given)", "values": [{"measurement": "survivor count", "setting": "[3]", "value": "0 of 6 and 1 of 6"}, {"measurement": "survivor count", "setting": "[1]", "value": "3 of 6"}, {"measurement": "survivor count", "setting": "[4]", "value": "0 of 6"}]}
{"smiles": "Cc1ccc(S(=O)(=O)N/N=C2/C=CC3(CCCC3)CC2)cc1", "values": [{"measurement": "survivor count", "setting": "[3]", "value": "6 of 6"}]}
{"smiles": "NNc1ccc(Cl)nn1", "values": [{"measurement": "survivor count", "setting": "dose: 30.0 mg/kg/injection, schedule: Q01DX005 (ip), vehicle: saline with Tween-80", "value": "0 of 6"}, {"measurement": "survivor count", "setting": "dose: 60.0 mg/kg/injection, schedule: Q01DX005 (ip), vehicle: saline with Tween-80", "value": "0 of 6"}, {"measurement": "survivor count", "setting": "dose: 120.0 mg/kg/injection, schedule: Q01DX005 (ip), vehicle: saline with Tween-80", "value": "0 of 6"}, {"measurement": "survivor count", "setting": "dose: 240.0 mg/kg/injection, schedule: Q01DX005 (ip), vehicle: saline with Tween-80", "value": "0 of 6"}]}
{"smiles": "Nc1nnc(Cc2ccccc2)n1N", "values": [{"measurement": "survivor count", "setting": "dose: 240.0 mg/kg/injection, schedule: Q01DX005 (ip), vehicle: saline", "value": "0 of 6"}]}
{"smiles": "CC1(C)N=C(N)N=C(N)N1c1ccc(CNC(=O)Nc2ccc(S(=O)(=O)F)cc2)cc1", "values": [{"measurement": "T/C", "setting": "dose: 50.0 mg/kg/injection, schedule: Q04DX003 (ip), vehicle: saline", "value": "145 % of control"}]}
{"smiles": "CC(=O)OC1CSS(=O)CC1OC(C)=O", "note": "(stereo not given)", "values": [{"measurement": "survivor count", "setting": "dose: 400.0 mg/kg/injection, schedule: Q04DX002 (ip), vehicle: saline", "value": "4 of 6"}]}
{"smiles": "COc1ccc2nc3ccccc3c(NCCNCCO)c2c1", "values": [{"measurement": "T/C", "setting": "dose: 5.0 mg/kg/injection, schedule: Q01DX009 (ip), vehicle: saline", "value": "131 % of control"}, {"measurement": "survivor count", "setting": "dose: 10.0 mg/kg/injection, schedule: Q01DX009 (ip), vehicle: saline", "value": "4 of 6"}, {"measurement": "survivor count", "setting": "dose: 20.0 mg/kg/injection, schedule: Q01DX009 (ip), vehicle: saline", "value": "5 of 6"}]}
{"smiles": "Cn1/c2cc/c1=C(\\c1ccccc1)c1ccc([n-]1)/C(c1ccccc1)=c1/cc/c([nH]1)=C(\\c1ccccc1)c1ccc([n-]1)/C=2c1ccccc1.O.O=S(=O)(O)C(F)(F)F.[Cu+2]", "values": [{"measurement": "survivor count", "setting": "dose: 100.0 mg/kg/injection, schedule: Q01DX009 (ip), vehicle: other", "value": "6 of 6"}, {"measurement": "survivor count", "setting": "dose: 200.0 mg/kg/injection, schedule: Q01DX009 (ip), vehicle: other", "value": "6 of 6"}]}
{"smiles": "CCN(CC)CCCC(C)n1c2nc(=O)[nH]c(=O)c-2nc2ccc(Cl)cc21", "note": "(stereo not given)", "values": [{"measurement": "survivor count", "setting": "dose: 50.0 mg/kg/injection, schedule: Q01DX005 (ip), vehicle: saline", "value": "0 of 6"}, {"measurement": "survivor count", "setting": "dose: 100.0 mg/kg/injection, schedule: Q01DX005 (ip), vehicle: saline", "value": "0 of 6"}, {"measurement": "survivor count", "setting": "dose: 200.0 mg/kg/injection, schedule: Q01DX005 (ip), vehicle: saline", "value": "0 of 6"}]}
{"smiles": "C/C(=C\\[P+](c1ccccc1)(c1ccccc1)c1ccccc1)N1CC1", "values": [{"measurement": "survivor count", "setting": "dose: 25.0 mg/kg/injection, schedule: Q01DX001 (ip), vehicle: saline with Tween-80", "value": "2 of 6"}, {"measurement": "survivor count", "setting": "dose: 50.0 mg/kg/injection, schedule: Q01DX001 (ip), vehicle: saline with Tween-80", "value": "0 of 6"}, {"measurement": "survivor count", "setting": "dose: 100.0 mg/kg/injection, schedule: Q01DX001 (ip), vehicle: saline with Tween-80", "value": "0 of 6"}, {"measurement": "survivor count", "setting": "dose: 200.0 mg/kg/injection, schedule: Q01DX001 (ip), vehicle: saline with Tween-80", "value": "0 of 6"}, {"measurement": "survivor count", "setting": "dose: 400.0 mg/kg/injection, schedule: Q01DX001 (ip), vehicle: saline with Tween-80", "value": "0 of 6"}]}
{"smiles": "Nc1[nH]c(=S)[nH]c(=O)c1N=Cc1ccc(Cl)c(Cl)c1", "values": [{"measurement": "T/C", "setting": "[4]", "value": "128 % of control"}]}
{"smiles": "COc1cccc2c1C(=O)c1c(O)c3c(c(O)c1C2=O)CC(O)(C(C)=O)CC3OC1CC(NCC2(O)OCC(O)C2O)C(O)C(C)O1", "note": "(stereo not given)", "values": [{"measurement": "T/C", "setting": "dose: 50.0 mg/kg/injection, schedule: Q04DX003 (ip), vehicle: water", "value": "137 % of control"}]}
{"smiles": "CCN(C=Nc1ccc(Cl)cc1C)CC", "values": [{"measurement": "survivor count", "setting": "dose: 200.0 mg/kg/injection, schedule: Q01DX009 (ip), vehicle: Klucel (hydroxypropylcellulose) (HPC)", "value": "6 of 6"}]}
